Measurements from PMC9740361.
These are yes or no findings as the source states them, for the method shown. Binding seen in cells or lysates may run through a third protein. Some results given as binding are weak or reduced against the parent protein; the word gives no strength. Tags and fused reporters may be left off the sequences shown.

Sequences of proteins named here, by UniProt entry; tags and fusion partners are left off.
UniProt P35579: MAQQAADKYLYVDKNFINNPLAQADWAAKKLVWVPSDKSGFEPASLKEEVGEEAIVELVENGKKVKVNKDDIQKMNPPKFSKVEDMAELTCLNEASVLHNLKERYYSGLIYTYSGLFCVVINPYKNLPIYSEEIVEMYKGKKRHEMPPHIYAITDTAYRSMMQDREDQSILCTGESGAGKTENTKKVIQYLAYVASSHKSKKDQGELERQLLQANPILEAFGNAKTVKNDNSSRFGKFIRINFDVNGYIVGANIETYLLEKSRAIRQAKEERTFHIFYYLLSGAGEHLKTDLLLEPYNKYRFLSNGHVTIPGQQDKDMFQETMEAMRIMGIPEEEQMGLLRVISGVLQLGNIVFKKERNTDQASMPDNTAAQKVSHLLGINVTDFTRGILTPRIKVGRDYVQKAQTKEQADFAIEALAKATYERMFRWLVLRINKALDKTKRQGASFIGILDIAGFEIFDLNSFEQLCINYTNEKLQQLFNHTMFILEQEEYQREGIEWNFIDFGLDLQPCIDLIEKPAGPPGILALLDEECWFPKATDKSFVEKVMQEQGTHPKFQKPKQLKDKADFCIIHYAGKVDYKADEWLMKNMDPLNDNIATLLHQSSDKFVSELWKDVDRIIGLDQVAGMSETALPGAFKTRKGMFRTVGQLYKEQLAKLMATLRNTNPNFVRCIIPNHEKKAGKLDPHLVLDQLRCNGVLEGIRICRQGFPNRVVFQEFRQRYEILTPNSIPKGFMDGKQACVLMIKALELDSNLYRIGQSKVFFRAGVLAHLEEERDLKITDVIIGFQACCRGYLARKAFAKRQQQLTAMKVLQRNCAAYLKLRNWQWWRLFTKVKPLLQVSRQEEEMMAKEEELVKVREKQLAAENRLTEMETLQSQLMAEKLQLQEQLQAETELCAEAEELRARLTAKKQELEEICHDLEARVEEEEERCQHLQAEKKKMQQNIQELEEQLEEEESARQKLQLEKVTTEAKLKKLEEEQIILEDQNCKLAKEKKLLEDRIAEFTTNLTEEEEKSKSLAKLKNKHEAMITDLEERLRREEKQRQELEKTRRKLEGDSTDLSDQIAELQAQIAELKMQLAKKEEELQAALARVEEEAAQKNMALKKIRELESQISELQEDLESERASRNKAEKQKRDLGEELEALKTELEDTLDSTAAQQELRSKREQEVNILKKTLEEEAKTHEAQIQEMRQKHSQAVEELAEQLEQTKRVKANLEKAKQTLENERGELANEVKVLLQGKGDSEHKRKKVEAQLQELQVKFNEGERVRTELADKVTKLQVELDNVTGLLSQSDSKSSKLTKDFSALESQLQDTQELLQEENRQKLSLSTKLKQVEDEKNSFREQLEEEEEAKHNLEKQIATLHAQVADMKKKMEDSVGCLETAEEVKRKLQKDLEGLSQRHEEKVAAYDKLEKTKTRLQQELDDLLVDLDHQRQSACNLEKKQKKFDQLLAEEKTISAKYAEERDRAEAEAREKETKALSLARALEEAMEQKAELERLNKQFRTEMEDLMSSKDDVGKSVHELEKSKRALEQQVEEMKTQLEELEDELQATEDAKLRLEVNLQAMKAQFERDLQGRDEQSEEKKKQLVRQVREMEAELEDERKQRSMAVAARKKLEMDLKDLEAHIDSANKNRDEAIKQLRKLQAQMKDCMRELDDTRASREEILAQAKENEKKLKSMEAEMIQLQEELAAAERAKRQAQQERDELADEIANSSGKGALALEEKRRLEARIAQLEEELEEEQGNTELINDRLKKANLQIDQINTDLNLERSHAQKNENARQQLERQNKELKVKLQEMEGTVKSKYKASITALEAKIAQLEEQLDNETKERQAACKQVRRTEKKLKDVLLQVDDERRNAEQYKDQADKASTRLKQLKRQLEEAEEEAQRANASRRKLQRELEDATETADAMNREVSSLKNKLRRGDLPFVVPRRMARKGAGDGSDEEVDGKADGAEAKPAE

Target: T1, Nucleosome assembly protein 1-like 5 (NAP1L5), Flag-tagged (human) (UniProt Q96NT1)
T1 sequence: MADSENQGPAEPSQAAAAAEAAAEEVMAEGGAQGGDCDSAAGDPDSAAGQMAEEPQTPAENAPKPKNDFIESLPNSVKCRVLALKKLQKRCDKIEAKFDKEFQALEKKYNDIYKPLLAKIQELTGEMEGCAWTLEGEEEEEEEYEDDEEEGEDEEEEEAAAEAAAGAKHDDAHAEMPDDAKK
Experiment: co-IP; cells lysed in low-salt lysis buffer, 4°C; anti-Flag or anti-IgG antibody overnight at 4°C, protein A/G beads, washed in TBST 3 times; Western blotting

MYH9 (nonmuscle myosin, NMIIA) (from UniProt P35579 1-1960)
binding: binds
